Measured values from patent US5948754A (Takeda Chemical Industries, Ltd., priority 1993, dated 1999).
HELM strings list residues between dots; [ac] is acetyl, [am] amide, other brackets name non-standard units.

Assay: general procedure: solution-phase peptide synthesis; DCC/HONB (ONB active esters)
Settings: purification step

Substance: PEPTIDE1{[dD].[Asp(B7)].D.[D-gMeLeu].L.[dW]}$PEPTIDE1,PEPTIDE1,1:R1-6:R2$$$V2.0
- step yield: preparatory HPLC recovery 32%
